The values that follow come from publication PMC6439305 (iScience, 2019).

Amino acid sequences for entries named in this document (tags omitted).
UniProt P42866, whole entry: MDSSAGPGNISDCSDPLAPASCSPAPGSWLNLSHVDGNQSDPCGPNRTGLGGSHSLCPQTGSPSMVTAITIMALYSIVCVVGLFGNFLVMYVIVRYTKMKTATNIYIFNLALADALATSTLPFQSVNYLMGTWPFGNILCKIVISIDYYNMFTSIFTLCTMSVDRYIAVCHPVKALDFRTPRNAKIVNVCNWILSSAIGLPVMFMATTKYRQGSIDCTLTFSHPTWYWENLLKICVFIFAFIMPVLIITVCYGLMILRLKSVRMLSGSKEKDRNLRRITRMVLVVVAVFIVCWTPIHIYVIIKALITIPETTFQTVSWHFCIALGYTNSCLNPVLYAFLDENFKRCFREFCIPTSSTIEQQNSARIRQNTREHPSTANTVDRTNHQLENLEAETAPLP

In this experiment the target is MOR-Venus (mu opioid receptor fused to Venus-YFP) (Mus musculus, UniProt P42866). Briefly: Galphai2/Ggamma2 BRET2 dissociation assay, HEK293. It is filed as cell-based. The following applies: agonist, 10 min stimulation. For orientation: In BRET a luciferase serves as donor, and the signal depends on an acceptor being close.

In the case of `CN1CC[C@]23c4c5ccc(O)c4O[C@H]2[C@@H](O)C=C[C@H]3[C@H]1C5` [morphine], the EC50 entry is reported as “Morphine in HEK293 cells showed efficient Gαi signaling”.

As to `CO[C@]12CC[C@@]3(C[C@@H]1[C@](C)(O)C(C)(C)C)[C@H]1Cc4ccc(O)c5c4[C@@]3(CCN1CC1CC1)[C@H]2O5` [buprenorphine], the EC50 entry was “for buprenorphine, which had significantly lower efficacy and potency than Met-Enk”.
